# Reference: PubChem BioAssay AID493014 (National Center for Advancing Translational Sciences (NCATS), 2011)
# Out of some 340,000 compounds screened, about 170 (0.05%) were called active. The shares of active, inactive and inconclusive entries below differ from those in the screen. Calls come from the whole dose curve; as a rule, active = well fitted inhibition curve with a large enough effect in the signal ratio, with a control signal flat (not every such curve was filed as active); inconclusive = small, poorly fitted or top-dose-only effect, or effect the other way, or a change in a side signal; inactive = flat fitted curve, though single readings scatter; the % refers to the signal ratio. Where the call is inconclusive, the potency comes from a doubtful curve fit.
# Assay: qHTS Assay to Find Inhibitors of Chronic Active B-Cell Receptor Signaling;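 for activity change, negative = inhibition: plate controls were basal doxycycline-induced cells for no effect and cells given 10 µM MG132 for full effect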
# Conditions: ABC-DLBCL IkBa-CBG/CBR reporter, luminescence ratio (green luciferase fused to IkBa over red control in TMD8 lymphoma cells), 4 h; activity change, negative = inhibition: at 46.1 µM (top of the series)
# Method in brief: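 Compounds up to 46 uM were incubated four hours with TMD8 cells whose green CBG68 luciferase is fused to IkappaBalpha; red CBR luminescence normalised the signal, and concentration-effect curves were fitted to fusion, red and ratio data.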
# Potency is the fitted concentration of half-maximal effect.
Compound,"activity change, negative = inhibition",Potency
CCOc1ccc(-c2n[nH]c(C)c2-c2ccccc2OC)c(O)c1,inconclusive: -1.58%,
O=C(Nc1nccs1)c1cccc(NC(=O)C2CC2)c1,inconclusive: 0.913%,
COCCNC(=S)NN=C1CCCCC1,,"inconclusive: 35.5 µM [cytotoxic, single point]"
O=C(CCCn1c(=S)[nH]c2cc3c(cc2c1=O)OCO3)NCc1ccccc1Cl,inconclusive: -2.97%,
O=C(NCCC1CCCCN1S(=O)(=O)c1ccc(Cl)cc1)C(=O)NCc1ccco1 (stereo not drawn),inactive,
CC(C)c1ccc(CNNC(=O)c2ccccc2)cc1,,"inconclusive: 11.2 µM [falling, partial curve]"
CCOC(=O)c1cnn(-c2nc(-c3ccccc3)cs2)c1C(F)(F)F,inconclusive: 9.76%,
Cc1cccc(NC(=S)NNC(=O)Cc2ccccc2)c1,inconclusive: 9.96%,
CC(C)(C)c1ccccc1NC(=O)CN1C(=O)NC(Cc2ccccc2)C1=O (stereo not drawn),inactive,
Cc1ccc(NC(=O)CSc2nc(N)c(-c3ccccc3)c(=O)[nH]2)cc1Cl,,"inconclusive: 1.12 µM [falling, partial curve, poor fit]"
Cc1ccc2nc(NC(=S)NC(=O)c3ccco3)sc2c1,,"inconclusive: 29.1 µM [falling, single point]"
COc1ccc(-c2nnc(C3CCN(S(=O)(=O)c4ccccc4)CC3)o2)cc1,inactive,
Cc1nnc(-c2cccc(Br)c2)c2cn(-c3cccc(Br)c3)nc12,inconclusive: 13.7%,
CCOC(=O)c1c(O)cc(C)cc1Nc1ccccc1,inconclusive: 2.66%,
Cc1cccn2c(=O)c3cc(C(=O)NC4CCCC4)c(=N)n(C4CCCC4)c3nc12,inconclusive: 19.8%,
Cc1nc(-c2cccc(NC(=O)COc3ccc(Cl)cc3)c2)cs1,inconclusive: -19.2%,
COc1ccc(C(=O)OCC(=O)NCCCc2ccccc2)c(OC)c1,inconclusive: -8.54%,
O=C(NCC1CCCO1)c1ccc(CSCc2cccc(F)c2)o1 (stereo not drawn),,"inconclusive: 35.5 µM [falling, single point]"
C/C(=N\O)c1ccn(S(=O)(=O)c2ccc(Cl)cc2)c1,,"inconclusive: 11.2 µM [falling, partial curve, poor fit]"
O=C(COc1ccc(Cl)cc1)Nc1ccc2c(c1)CCC2,inconclusive: 10.1%,
COc1ccccc1OCCn1cc(/C=N/NC(N)=S)c2ccccc21,,"inconclusive: 15.8 µM [falling, partial curve]"
CCOCCCNC(=O)c1ccc2c(=O)n(Cc3ccc(OC)cc3)c(=O)[nH]c2c1,inconclusive: 0.0212%,
Cc1c(C(=O)O)sc2c1c(=O)n(Cc1ccccc1)c(=O)n2C,inconclusive: -0.332%,
CCN1CCN(C(=O)NC(c2ccc(C)c(F)c2)C(Cl)Cl)CC1 (stereo not drawn),inconclusive: -22.9%,
Cc1nn(-c2ccccc2)c(C)c1/C=N/NC(=O)CSc1nc2ccccc2c(=O)n1-c1ccc(Br)cc1,inactive,
O=C(c1ccc([N+](=O)[O-])s1)N1CCN(c2ccccc2)CC1,,"inconclusive: 23.1 µM [rising, partial curve, poor fit]"
COCCNc1ncnc2c1cnn2Cc1ccc(Cl)cc1,inconclusive: 14.9%,

Compound,"activity change, negative = inhibition",Potency
CCCN1CCN(C(=O)Cn2nc(CC)n3c(cc4sccc43)c2=O)CC1,inconclusive: -7.26%,
CCOC(=O)c1c(NC(=O)C2C3C=CC(C3)C2(C)C(=O)O)sc2c1CCCC2 (stereo not drawn),,"inconclusive: 10.3 µM [rising, partial curve, poor fit]"
O=C(N/N=C/c1ccc(N2CCCCC2)o1)C(O)(c1ccccc1)c1ccccc1,inconclusive: -13.7%,
Cc1cc(C)c2[nH]c(C(=O)Nc3ccc4c(c3)OCO4)cc2c1,inconclusive: -16.6%,
CC(C)N(c1ccccc1)c1ccc(NC(=O)C2CCCO2)cc1 (stereo not drawn),inactive,
CSc1nc(-c2ccc(Cl)cc2)nn1C(=O)c1ccco1,inconclusive: 2.67%,
CCOC(=O)CNC(=O)Nc1cccc(Cl)c1C,,"inconclusive: 2.06 µM [rising, partial curve, poor fit]"
O=c1[nH]cnc2scc(-c3cccs3)c12,,"inconclusive: 29.1 µM [falling, single point]"
O=C(O)CC(NC(=O)C1CCCCC1)c1ccc(OC2CCCC2)cc1 (stereo not drawn),inconclusive: -27.3%,
Cc1cc(NS(=O)(=O)c2ccc(NC(=S)NC(=O)c3ccccc3)cc2)no1,inconclusive: 0.339%,
CCOC(=O)c1nnc(-c2ccccc2)o1,inactive,
CCOC(=O)C1CCCN(S(=O)(=O)c2cc3c4c(c2)CCN4C(=O)CC3)C1 (stereo not drawn),inconclusive: 10.4%,
Cc1ccnc(SCC(=O)Nc2cccc(S(=O)(=O)N3CCOCC3)c2)n1,inconclusive: 0.183%,
COc1ccccc1NCc1nnc2n1CCCCC2,inactive,
CCc1ccc(-c2ccc(C(=O)O)cc2)nc1,,"inconclusive: 7.94 µM [falling, partial curve, poor fit]"
CCn1c(=O)c2sccc2n2c(CCCC(=O)NCc3cccnc3)nnc12,inactive,
CCN(CC)C1CCN(C(=O)c2cc(COc3cccc4cccnc34)on2)C1 (stereo not drawn),inactive,
CCOC(=O)CC(=O)CSc1nc2c(c(-c3cccs3)c1C#N)CCC2,,"inconclusive: 29.1 µM [falling, single point]"
COc1ccc(O)c(CN2CCCC(C(=O)Nc3cccc(-n4cccn4)c3)C2)c1 (stereo not drawn),inconclusive: -10.5%,
Cc1cc(C)n(CC(O)COc2ccc(Cl)cc2)n1 (stereo not drawn),inactive,
O=C1NC(=Nc2ccccc2)S/C1=C/c1cccnc1,inconclusive: -12%,
Cc1cc(C(=O)CSc2nnc3c(Cl)cc(Cl)cn23)c(C)n1C,,"inconclusive: 7.94 µM [falling, partial curve]"
O=C(Nc1cccnc1)c1cnc2ccccc2n1,inconclusive: -0.349%,
NCCNc1ccc([N+](=O)[O-])cc1,inactive,
COc1ccc(C(C(=O)NCc2ccccc2)N(C(=O)c2snc(C(N)=O)c2N)c2ccccc2OC)cc1 (stereo not drawn),inactive,
O=C(CN1CCN(S(=O)(=O)c2cccc(F)c2)CC1)Nc1ccnn1C1CCCC1,inactive,

# Random excerpt: 2 compounds from above.
Compound,"activity change, negative = inhibition",Potency
CCc1ccc(-c2ccc(C(=O)O)cc2)nc1,,"inconclusive: 7.94 µM [falling, partial curve, poor fit]"
Cc1ccc(NC(=O)CSc2nc(N)c(-c3ccccc3)c(=O)[nH]2)cc1Cl,,"inconclusive: 1.12 µM [falling, partial curve, poor fit]"
